## Library screen at single concentrations

Chains of the proteins cited; added tags and fusions are not shown.
UniProt P9WFT3, whole entry: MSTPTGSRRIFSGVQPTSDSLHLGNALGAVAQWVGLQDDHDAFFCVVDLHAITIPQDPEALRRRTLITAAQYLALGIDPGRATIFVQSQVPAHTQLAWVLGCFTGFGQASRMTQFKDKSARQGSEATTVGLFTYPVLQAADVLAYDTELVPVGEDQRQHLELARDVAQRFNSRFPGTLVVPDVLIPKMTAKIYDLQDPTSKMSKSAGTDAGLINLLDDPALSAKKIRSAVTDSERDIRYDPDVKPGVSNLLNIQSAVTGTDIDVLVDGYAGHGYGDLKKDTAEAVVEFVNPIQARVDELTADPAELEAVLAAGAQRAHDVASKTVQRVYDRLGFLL

Each number is a percent effect as filed. The record does not define 0% and 100%; most values in the screen are far below 50% and negative numbers occur (in some assays of this library far below -100). This is an unselected part of the compounds tested.

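Enzyme assay of tryptophanyl-tRNA synthetase; the read-out is not stated. Target: Tryptophan-tRNA ligase, Mycobacterium tuberculosis (UniProt P9WFT3). Tested at 10 µM. Direction is not recorded; retested compounds ran higher, which suggests that high means inhibition. Of about 65,000 compounds tested this way, about 64 (0.098%) reached 50% or more in at least one test.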

| # | compound | Percent Effect |
|---|---|---|
| 1 | `CCc1cc(NC(=O)N2CCC(Oc3cccnc3)C2)n(C)n1` (stereo not shown) | -0.1037% |
| 2 | `COCCNC(=O)[C@@]12CCO[C@@H]1CCN(Cc1ccncc1)C2` | -0.2292% |
| 3 | `CC(C)c1cc(NC(=O)c2ccncc2)[nH]n1` | -3.797% |
| 4 | `Cc1csc2c(C3CCCN(C(=O)Cn4cncn4)C3)nc(C)n12` (stereo not shown) | -8.527% |
| 5 | `O=C(NCCO)c1ccn(-c2ccc3ccccn23)n1` | 6.616% |
| 6 | `CCCOc1cccc(CNC(=O)CN2CCN(C)CC2C)c1` (stereo not shown) | -4.762% |
| 7 | `Cc1cnn(CCNCc2ccc(OCc3csc(C)n3)cc2)c1` | -1.954% |
| 8 | `CC(C)c1nc(CN(C)C(=O)c2ccc(CN3CCCCC3)cc2)cs1` | -3.06% |
| 9 | `COC(=O)N1CCC2(CC1)CC(c1ccccc1)CN(C)C2` (stereo not shown) | 0.486% |
| 10 | `O=C(NCc1ccncc1)C1=NOC2(CCCNC2)C1` (stereo not shown) | -3.836% |
| 11 | `Cc1nn(C)c(N(C)C)c1CNCc1ccccc1Cn1ccnc1` | 5.367% |
| 12 | `Cc1ccc(C(=O)N2CCCC(N(C)C(=O)OC(C)(C)C)C2)o1` (stereo not shown) | -7.38% |
| 13 | `c1cnn([C@@H]2CN(Cc3nccs3)[C@@H]3CCCO[C@@H]32)c1` | -2.045% |
| 14 | `COCCNC(=O)[C@@H]1CCO[C@@H]2CCN(c3ccc(C)nn3)C[C@@H]21` | -10.45% |
| 15 | `O=S(=O)(NC1CCC2(CC1)OCCO2)c1cccc(Br)c1` | 14.58% |
| 16 | `CC(c1cccc(Cl)c1)N(C)Cc1nc2c(cnn2C)c(=O)[nH]1` (stereo not shown) | 5.225% |
| 17 | `COCCN1CCC(CNC(=O)C2(c3cccc(C)c3)CC2)CC1` | -0.2924% |
| 18 | `Cc1nc(C)n(CCNC(=O)C(C)n2ccnc2C(C)C)n1` (stereo not shown) | 5.242% |
| 19 | `O=C(c1cccc(Cn2ccnc2)c1)N1CCCC(n2cccn2)C1` (stereo not shown) | -1.604% |
| 20 | `CN1C(=O)C2(CCN(CCO)C2)c2ccccc21` (stereo not shown) | 1.482% |
| 21 | `Cc1nn(C)c(NC(=O)C2SCCc3ccccc32)c1C` (stereo not shown) | 1.868% |
| 22 | `CN(C)CCn1ccnc1C1CCCN(C(=O)CCc2cccnc2)C1` (stereo not shown) | -2.033% |
| 23 | `CCN(CC)Cc1ccc(C(=O)N2CCCCC2Cn2cccn2)o1` (stereo not shown) | -4.762% |
| 24 | `CCc1noc(CN2CCN(C(=O)COC)CC2)n1` | 18.91% |
| 25 | `Cc1sc(NC(=O)CN(C)S(C)(=O)=O)c(C#N)c1C` | -1.433% |
| 26 | `CCc1cc(=O)[nH]c(-c2ccc(NC(CO)CC(C)C)nc2)n1` (stereo not shown) | 2.949% |
| 27 | `CCN(Cc1ccco1)C(C)c1nc(C(C)(C)C)no1` (stereo not shown) | -7.22% |
| 28 | `Cc1noc(C)c1CN1CCO[C@H]2CN(C(=O)C3CCOCC3)C[C@H]21` | -1.256% |
| 29 | `COCCCN1CCCN(C(C)C(=O)Nc2cccc(I)c2)CC1` (stereo not shown) | 9.756% |
| 30 | `Cc1cnn(CC2CCCN2C(=O)c2sccc2C#N)c1` (stereo not shown) | -5.068% |
| 31 | `CC1CCN(C(=O)Cn2nc(Br)nc2Br)CC1` | 5.139% |
| 32 | `COCC(=O)NCc1cccc(Br)c1` | -2.358% |
| 33 | `O=C(NCc1ccc(-n2cncn2)nc1)c1ccoc1` | 1.487% |
| 34 | `CN(C)S(=O)(=O)N1C[C@H]2C[C@H](C(=O)Nc3cccnc3)[C@@H](C1)O2` | -0.9382% |
| 35 | `CC(=O)NCC(=O)N1CCCC(C(=O)c2ccc(C(C)(C)C)cc2)C1` (stereo not shown) | 1.769% |
| 36 | `Cc1ccc(C(=O)N2CCC3(CCN3c3ncccn3)C2)cn1` (stereo not shown) | -0.1767% |
| 37 | `COCc1nnc(NC(=O)CN2C(=O)c3ccccc3NC2C(C)C)s1` (stereo not shown) | 6.109% |
| 38 | `Cn1c(Cn2ccnc2)nnc1C1CCN(C(=O)c2ccoc2)CC1` | 6.302% |
| 39 | `COC(=O)c1cccc(C(=O)N2CCN(c3ccccc3F)CC2)n1` | 17.53% |
| 40 | `CC(C)NC(=O)C1CN(Cc2ccc(F)cc2)CC12CCOCC2` (stereo not shown) | 4.288% |
| 41 | `CN1C[C@@H]2CC[C@H](C1)N(Cc1ccccc1OCCN1CCOCC1)C2` | 3.701% |
| 42 | `CCc1noc(CS(=O)(=O)c2cccc(OC)c2)n1` | -2.081% |
| 43 | `CC(C)Oc1cccc(Cc2nc3c([nH]2)CCCNC3=O)c1` | -4.974% |
| 44 | `COc1ccc(C)cc1NC(=O)Nc1cnc(N2CCOCC2)nc1` | 0.7337% |
| 45 | `COc1cc(C(=O)NS(=O)(=O)c2cc(Cl)sc2Cl)ccc1OC(F)F` | 2.534% |
| 46 | `CSCc1cc(F)ccc1CNC(=O)N1CCC[C@@H]1CO` | -5.415% |

Once more, the final 3:

With COc1ccc(C)cc1NC(=O)Nc1cnc(N2CCOCC2)nc1 the screen gave 0.7337%.
With COc1cc(C(=O)NS(=O)(=O)c2cc(Cl)sc2Cl)ccc1OC(F)F the screen gave 2.534%.
With CSCc1cc(F)ccc1CNC(=O)N1CCC[C@@H]1CO the screen gave -5.415%.

The values are deposited in ChEMBL (CHEMBL3988442, “University of Dundee, Small-Polar-MMV Screening Library” (2021)).